This data set in a line: peptide synthesis. As to conditions: whole synthesis.

Plain letter strings leave the end groups untold.

For the sequence ISFQLMLCVLDYF, the “final purity (method not given)” value is given as “about 99%”.

Source of the values: patent US12297295B2 (Saint Leo University, priority 2019, dated 2025).
